Among the data in article PMC7819943, “Rice protein-binding microarrays: a tool to detect cis-acting elements near promoter regions in rice” are binding signal values, retold here.

Sequences of proteins named here, by UniProt entry; tags and fusion partners are left off.
UniProt Q0JBA9, entry or part of it: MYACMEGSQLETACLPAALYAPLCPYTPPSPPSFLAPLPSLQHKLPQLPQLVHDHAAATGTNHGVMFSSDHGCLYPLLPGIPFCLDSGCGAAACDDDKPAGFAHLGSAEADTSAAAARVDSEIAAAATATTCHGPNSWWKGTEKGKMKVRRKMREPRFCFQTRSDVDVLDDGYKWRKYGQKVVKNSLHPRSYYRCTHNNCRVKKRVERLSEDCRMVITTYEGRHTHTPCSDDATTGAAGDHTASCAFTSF

This is one part of the list.

For this assay, the target named is OsWRKY34 (Oryza sativa, UniProt Q0JBA9 1-250). The assay is described as follows: protein-binding microarray (RPBM); PBS, 2% BSA, 51.3 ng/ul salmon testes DNA, 50 uM zinc acetate, 200 nM TF, 25 C, 1 h; high values mean tight binding. Particulars: protein: recombinant; tags: N-terminal polyhistidine and DsRed monomer fusion (pET32a); label: CyDye5-dUTP incorporated in the synthesized complementary strand; 3' TTTTT single-stranded linker to array surface; dsDNA, one strand shown. Summed up: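 Transcription factors were each fused at the N-terminus to a polyhistidine tag plus DsRed and expressed in E. coli BL21-CodonPlus before Ni–NTA purification. Binding to a double-stranded custom Agilent array was carried out with 200 nM protein at 25 °C for 1 h in PBS, 2% BSA, salmon testes DNA and 50 µM zinc acetate. The binding signal is per-feature fluorescence intensity, in arbitrary units, on an Axon 4000B scanner.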
As for “GCATGTTGGCTTGTATGTTGATCTTGTGTCTTGATCTATTCGGAGTCACCTAGTGCAG”, the binding signal was 9680 fluorescence intensity (a.u.).

With “TCACATGCCAATTCAGCTGGTTAGACTAGATCAACCCAGTCGGAGTCACCTAGTGCAG”, the binding signal is 8310 fluorescence intensity (a.u.).

Consider “CTTCATTCGATTTATAGGCCCCAGCACTGCATGCGTATCCCGGAGTCACCTAGTGCAG”, for which the binding signal is 9450 fluorescence intensity (a.u.).

Regarding “CGGGGAGGGGAGGGCTGTGAAATCCTAGGGTTGGGCGAAGCGGAGTCACCTAGTGCAG”, the binding signal was 15000 fluorescence intensity (a.u.).

In the case of “GCCAAAATCCCGGCCCATACACGTTGGAGTAAGTCCACTTCGGAGTCACCTAGTGCAG”, the binding signal was 8230 fluorescence intensity (a.u.).

For the sequence “TAAGGTAAACGGTCAAATATTTTTAAAAAAGTCAACGATACGGAGTCACCTAGTGCAG”, the binding signal was 10500 fluorescence intensity (a.u.).

Take “GCCCGCCACGTCTCTAAGTCGCTAGTACGCGCGAATTAGCCGGAGTCACCTAGTGCAG”: the binding signal is 8280 fluorescence intensity (a.u.).

Regarding “GATCAATTATTACCTTGCTTATTCCTAATATCTATACTAACGGAGTCACCTAGTGCAG”, the binding signal is 8760 fluorescence intensity (a.u.).

As for “CACTTTTTCATGGATTTTTACTTATTTAATGATTTTTTATCGGAGTCACCTAGTGCAG”, the binding signal was 8240 fluorescence intensity (a.u.).

Take “ATGCTGCTGAGGTTGACCTTTATTTAAGAATACCCTAGCGCGGAGTCACCTAGTGCAG”: the binding signal was 8840 fluorescence intensity (a.u.).

For the sequence “TTAGTGATTTGTATTTTTATTTTAATGCGTGATTTTTTTACGGAGTCACCTAGTGCAG”, the binding signal is 8980 fluorescence intensity (a.u.).

Turning to “AACAAATTTGACTATAAATAGAACGCGTATTTCATGCTCACGGAGTCACCTAGTGCAG”, the binding signal was 8460 fluorescence intensity (a.u.).

Take “TTTTCATGTATTTATATATTTTTATACGTTTATCAGTTATCGGAGTCACCTAGTGCAG”: the binding signal is 9880 fluorescence intensity (a.u.).

Turning to “TGGTTACTGGCGGTGCCTAAAGGTTTCTTTTCTTGATTATCGGAGTCACCTAGTGCAG”, the binding signal is 8220 fluorescence intensity (a.u.).

As for “TAATCATACGCTAATGGCTCACATCGTTTTGCATATCTTTCGGAGTCACCTAGTGCAG”, the binding signal is 8720 fluorescence intensity (a.u.).

For the sequence “TGTTTGCAATGCTCTCGTCCTCATCCATTTCGTCCAAGAACGGAGTCACCTAGTGCAG”, the binding signal was 11600 fluorescence intensity (a.u.).

Take “GCTGGGAGATTTCTTCTGTTTGTTCTTTTGTTTCGTCGTGCGGAGTCACCTAGTGCAG”: the binding signal is 9400 fluorescence intensity (a.u.).

On to “CACGAGCTCTCGTCTCGCCGCGTCCACACCAATCGGCGCCCGGAGTCACCTAGTGCAG”, for which the binding signal was 9490 fluorescence intensity (a.u.).

As for “GGTAAGTCTTGCTCCTTCAGTATTAAGCCTACTGTTTGAACGGAGTCACCTAGTGCAG”, the binding signal was 8050 fluorescence intensity (a.u.).

For the sequence “CCACTGCTATATATGTTCCTCGTTTTCCGCTGGCCAGTCACGGAGTCACCTAGTGCAG”, the binding signal was 13400 fluorescence intensity (a.u.).

In the case of “GCTGTTTGACTTTTTCTTAATTAAGCTTCTTTATGTTTGACGGAGTCACCTAGTGCAG”, the binding signal was 19700 fluorescence intensity (a.u.).

“GGCCTATCCCACACTATTCATCCGTTGGCCCAATACAAATCGGAGTCACCTAGTGCAG”: the binding signal is 9340 fluorescence intensity (a.u.).

Consider “GGTATCTGTTTTTAGTTCGTGCCACACTTATGGCAAGATTCGGAGTCACCTAGTGCAG”, for which the binding signal is 10900 fluorescence intensity (a.u.).

As for “AGGATGTGTCTCGCATCAGTTCTATCTTGTTTTTTTTTATCGGAGTCACCTAGTGCAG”, the binding signal is 9200 fluorescence intensity (a.u.).

On to “AAATCCCACCCAAAATTTTTTATTGTCACATCGAACGTTTCGGAGTCACCTAGTGCAG”, for which the binding signal was 8930 fluorescence intensity (a.u.).

“CGCTCTCTTGTTGACCACCTCGCGTTGCACTGGGCCAGCCCGGAGTCACCTAGTGCAG”: the binding signal is 9490 fluorescence intensity (a.u.).

In the case of “TTTGCTGCTGCTGCTTCTAGGGTTAGGGTTTGGGGTGGGGCGGAGTCACCTAGTGCAG”, the binding signal was 22100 fluorescence intensity (a.u.).

As to “CCAAACCAAACCAAATCTTTCAGTCCTTGTCACACAGATCCGGAGTCACCTAGTGCAG”, the binding signal is 8030 fluorescence intensity (a.u.).

As to “TAGCACCATTATACATTCATTTTCACAAAGAAAATATATCCGGAGTCACCTAGTGCAG”, the binding signal was 8350 fluorescence intensity (a.u.).

On to “CCTCCGCCGCCATCCATCTATTCGCGCCGCACCGCCCGCTCGGAGTCACCTAGTGCAG”, for which the binding signal is 10400 fluorescence intensity (a.u.).

Regarding “AGGTTTTGTTAGAGAATTTTAGTGGTATTGTAGCCTATTTCGGAGTCACCTAGTGCAG”, the binding signal is 8190 fluorescence intensity (a.u.).

As for “GGTTGTCTATGTGGAGCTTTACCTCTTTCTTCTTCTTCTTCGGAGTCACCTAGTGCAG”, the binding signal is 10300 fluorescence intensity (a.u.).

On to “TGTCGACCGAGCCAAGAACCCTCGCCCACACACACACACACGGAGTCACCTAGTGCAG”, for which the binding signal is 10200 fluorescence intensity (a.u.).

Consider “TAGTCTGTACCCTACGCCATCCCAGGAATCCGCGCCCTGGCGGAGTCACCTAGTGCAG”, for which the binding signal is 8620 fluorescence intensity (a.u.).

For the sequence “CCCTCCACAACTTTCCTTTTCTTTGAGAATGGATTCCCTCCGGAGTCACCTAGTGCAG”, the binding signal is 10100 fluorescence intensity (a.u.).

For “CCTCATTAGCTAGCTTTTTAGGGTGGGGAAGGCCCTTTACCGGAGTCACCTAGTGCAG”, the binding signal is 12700 fluorescence intensity (a.u.).

Take “CGCTTCCCACAACTTGCAGTCACGGTCAACACGAAACGAACGGAGTCACCTAGTGCAG”: the binding signal was 9350 fluorescence intensity (a.u.).

Turning to “GCTTAAGTTTTAACCATTCCTGACACGTTTAACAGCGAATCGGAGTCACCTAGTGCAG”, the binding signal was 8360 fluorescence intensity (a.u.).

For the sequence “CCTCTCCCAATCTCCAAAGTGTCATTTCACATTGACTTCACGGAGTCACCTAGTGCAG”, the binding signal is 8950 fluorescence intensity (a.u.).

With “ACCCGTCACCAACCTAGCTCGCGAGACAGCTCATCATTTGCGGAGTCACCTAGTGCAG”, the binding signal is 8540 fluorescence intensity (a.u.).

As to “GCCTTCGCTCTTCGTCGGGTCAGCTCCTGCCTTCCAAAGTCGGAGTCACCTAGTGCAG”, the binding signal is 9040 fluorescence intensity (a.u.).

In the case of “GGAGGAAGCCTACCTTTGCCATTATCTTTTCGTGGGCCCACGGAGTCACCTAGTGCAG”, the binding signal was 8640 fluorescence intensity (a.u.).
